Measurements taken from article PMC7614258.
Changes are numbered by the printed parent chain. No constants are given. Whether binding was seen depends on the method and setting. Some binding calls cover weakened binding; strength is not graded here. For some assays here: Sequences can lack the tags named with a protein. Each block holds one binder with its values, some of them ahead of it.

Experiments:
Assay in all cases: Western blot of cell lysates (dimer and monomer bands); lysates of HEK293 cells transiently transfected with WT or variant PRLR, blotted with anti-PRLR; concentrations of PRLR dimers compared
[1] = molecular target: prolactin receptor, wild-type (human) (UniProt P16471)
[2] = molecular target: prolactin receptor Glu155Lys variant (human) (UniProt P16471)
[3] = molecular target: prolactin receptor Asp187Glu variant (human) (UniProt P16471)
[4] = molecular target: prolactin receptor Glu145Asp variant (human) (UniProt P16471)
[5] = molecular target: prolactin receptor Arg183His variant (human) (UniProt P16471)

- binding [1]: binds
B1: prolactin receptor, wild-type (receptor, UniProt P16471 25-622)
chain: QLPPGKPEIFKCRSPNKETFTCWWRPGTDGGLPTNYSLTYHREGETLMHECPDYITGGPNSCHFGKQYTSMWRTYIMMVNATNQMGSSFSDELYVDVTYIVQPDPPLELAVEVKQPEDRKPYLWIKWSPPTLIDLKTGWFTLLYEIRLKPEKAAEWEIHFAGQQTEFKILSLHPGQKYLVQVRCKPDHGYWSAWSPATFIQIPSDFTMNDTTVWISVAVLSAVICLIIVWAVALKGYSMVTCIFPPVPGPKIKGFDAHLLEKGKSEELLSALGCQDFPPTSDYEDLLVEYLEVDDSEDQHLMSVHSKEHPSQGMKPTYLDPDTDSGRGSCDSPSLLSEKCEEPQANPSTFYDPEVIEKPENPETTHTWDPQCISMEGKIPYFHAGGSKCSTWPLPQPSQHNPRSSYHNITDVCELAVGPAGAPATLLNEAGKDALKSSQTIKSREEGKATQQREVESFHSETDQDTPWLLPQEKTPFGSAKPLDYVEIHKVNKDGALSLLPKQRENSGKPKKPGTPENNKEYAKVSGVMDNNILVLVPDPHAKNVACFEESAKEAPPSLEQNQAEKALANFTATSSKCRLQLGGLDYLDPACFTHSFH

- binding [2]: binds
B2: prolactin receptor Glu155Lys variant (receptor, UniProt P16471 25-622)
chain: B1 chain with E155K

- binding [3]: binds
B3: prolactin receptor Asp187Glu variant (receptor, UniProt P16471 25-622)
chain: B1 chain with D187E

- binding [4]: binds
B4: prolactin receptor Glu145Asp variant (receptor, UniProt P16471 25-622)
chain: B1 chain with E145D

- binding [5]: binds
B5: prolactin receptor Arg183His variant (receptor, UniProt P16471 25-622)
chain: B1 chain with R183H
